# A unit is not stated for every read-out.
# Columns and labels:
# [1] = Serum ethanolamine phospholipid levels in human cohorts (dementia severity, post-mortem pathology, age) by flow-injection MS/MS
# [2] = Serum ethanolamine phospholipid ratios to PtdEt 16:0/18:0 (M01) in human cohorts
# [3] = serum, females, post mortem SDAT
# [4] = serum, females, post mortem control
smiles,measurement,setting,value
"CCCCCCCC/C=C\CCCCCCCC(=O)OC(COCCCCCCCCCCCCCCCC)COP(=O)(O)OCCN (centres unmarked) [Metabolite M05, Plasmanyl 16:0/18:1]",Ratio of serum levels,"[1]; AD, All to CN, Male",0.882
same,Ratio of serum levels,"[1]; ADAS 5-19 to CN, Male",0.896
same,Ratio of serum levels,"[1]; ADAS 20-39 to 5-19, Male",0.966
same,Ratio of serum levels,"[1]; ADAS 20-39 to CN, Male",0.865
same,Ratio of serum levels,"[1]; ADAS 40-70 to 5-19, Male",0.933
same,Ratio of serum levels,"[1]; ADAS 40-70 to 20-39, Male",0.966
same,Ratio of serum levels,"[1]; ADAS 40-70 to CN, Male",0.836
same,"Serum level, Mean","[1]; Cognitive Normal, Female",0.011
same,"Average serum level, Mean","[1]; Cognitive Normal, Male",0.012
same,"Serum level, Mean","[1]; Post Mortem Ctl, Male",0.006
same,"Serum level, Mean",[1]; Post Mortem SDAT Male,0.004
same,Ratio of serum levels,"[1]; Post mortem SDAT vs Control, Male",0.479
same,"Serum level, Mean","[1]; SDAT, ADAS 5-19, Female",0.010
same,"Average serum level, Mean","[1]; SDAT, ADAS 5-19, Male",0.011
same,"Serum level, Mean","[1]; SDAT, ADAS 20-39, Female",0.009
same,"Average serum level, Mean","[1]; SDAT, ADAS 20-39, Male",0.010
same,"Serum level, Mean","[1]; SDAT, ADAS 40-70, Female",0.009
same,"Average serum level, Mean","[1]; SDAT, ADAS 40-70, Male",0.010
same,"Serum level, Mean","[1]; SDAT_all, Female",0.009
same,"Average serum level, Mean","[1]; SDAT_all, Male",0.010
same,"Ratio, ADAS 5-19 to CN, Female","[1]; serum level ratio, females, ADAS 5-19 vs CN",0.925
same,"Ratio, ADAS 20-39 to 5-19, Female","[1]; serum level ratio, females, ADAS 20-39 vs ADAS 5-19",0.967
same,"Ratio, ADAS 20-39 to CN, Female","[1]; serum level ratio, females, ADAS 20-39 vs CN",0.895
same,"Ratio, ADAS 40-70 to 5-19, Female","[1]; serum level ratio, females, ADAS 40-70 vs ADAS 5-19",0.936
same,"Ratio, ADAS 40-70 to 20-39, Female","[1]; serum level ratio, females, ADAS 40-70 vs ADAS 20-39",0.968
same,"Ratio, ADAS 40-70 to CN, Female","[1]; serum level ratio, females, ADAS 40-70 vs CN",0.867
same,"Ratio, 50-59 vs. 40-49, Female","[1]; serum level ratio, females, age 50-59 vs 40-49",0.811
same,"Ratio, 60-69 vs. 40-49, Female","[1]; serum level ratio, females, age 60-69 vs 40-49",0.798
same,"Ratio, 70+ vs. 40-49, Female","[1]; serum level ratio, females, age 70+ vs 40-49",0.832
same,"Ratio, AD, All to CN, Female","[1]; serum level ratio, females, all AD vs cognitively normal",0.893
same,"Ratio, Autopsy AD vs. Control, Female","[1]; serum level ratio, females, autopsy AD vs control",0.508
same,"Ratio, 50-59 vs. 40-49, Male","[1]; serum level ratio, males, age 50-59 vs 40-49",0.953
same,"Ratio, 60-69 vs. 40-49, Male","[1]; serum level ratio, males, age 60-69 vs 40-49",1.011
same,"Ratio, 70+ vs. 40-49, Male","[1]; serum level ratio, males, age 70+ vs 40-49",0.979
same,"Mean serum level, Age Ctl, 30-39, Female","[1]; serum, females, age 30-39",0.011
same,"Mean serum level, Age Ctl, 40-49, Female","[1]; serum, females, age 40-49",0.013
same,"Mean serum level, Age Ctl, 50-59, Female","[1]; serum, females, age 50-59",0.010
same,"Mean serum level, Age Ctl, 60-69, Female","[1]; serum, females, age 60-69",0.010
same,"Mean serum level, Age Ctl, 70+, Female","[1]; serum, females, age 70+",0.011
same,"Mean serum level, Post Mortem SDAT, Female",[1]; [3],0.003
same,"Mean serum level, Post Mortem Ctl, Female",[1]; [4],0.007
same,"Mean serum level, Age Ctl, 30-39, Male","[1]; serum, males, age 30-39",0.014
same,"Mean serum level, Age Ctl, 40-49, Male","[1]; serum, males, age 40-49",0.012
same,"Mean serum level, Age Ctl, 50-59, Male","[1]; serum, males, age 50-59",0.011
same,"Mean serum level, Age Ctl, 60-69, Male","[1]; serum, males, age 60-69",0.012
same,"Mean serum level, Age Ctl, 70+, Male","[1]; serum, males, age 70+",0.011
same,Ratio of ethanolamine phospholipid ratios to M01 between cohorts,"[2]; AD, All to CN, Male",0.840
same,Ratio of ethanolamine phospholipid ratios to M01 between cohorts,"[2]; ADAS 5-19 to CN, Male",0.858
same,Ratio of ethanolamine phospholipid ratios to M01 between cohorts,"[2]; ADAS 20-39 to CN, Male",0.841
same,Ratio of ethanolamine phospholipid ratios to M01 between cohorts,"[2]; ADAS 40-70 to CN, Male",0.798
same,"Average serum ethanolamine phospholipid ratio to M01, Mean","[2]; Cognitive Normal, Male, serum",0.106
same,"Average serum ethanolamine phospholipid ratio to M01, Mean","[2]; SDAT, ADAS 5-19, Male, serum",0.091
same,"Average serum ethanolamine phospholipid ratio to M01, Mean","[2]; SDAT, ADAS 20-39, Male, serum",0.089
same,"Average serum ethanolamine phospholipid ratio to M01, Mean","[2]; SDAT, ADAS 40-70, Male, serum",0.085
same,"Average serum ethanolamine phospholipid ratio to M01, Mean","[2]; SDAT_all, Male, serum",0.089
same,"Ethanolamine Phospholipid Ratio to M01, Mean, Age Ctl, 30-39, Female","[2]; human serum, females aged 30-39",0.112
same,"Ethanolamine Phospholipid Ratio to M01, Mean, Age Ctl, 40-49, Female","[2]; human serum, females aged 40-49",0.118
same,"Ethanolamine Phospholipid Ratio to M01, Mean, Age Ctl, 50-59, Female","[2]; human serum, females aged 50-59",0.105
same,"Ratio of Ethanolamine Phospholipid Ratio to M01, 50-59 vs. 40-49, Female","[2]; human serum, females aged 50-59 vs. females aged 40-49",0.892
same,"Ethanolamine Phospholipid Ratio to M01, Mean, Age Ctl, 60-69, Female","[2]; human serum, females aged 60-69",0.085
same,"Ratio of Ethanolamine Phospholipid Ratio to M01, 60-69 vs. 40-49, Female","[2]; human serum, females aged 60-69 vs. females aged 40-49",0.721
same,"Ethanolamine Phospholipid Ratio to M01, Mean, Age Ctl, 70+_Female","[2]; human serum, females aged 70+",0.089
same,"Ratio of Ethanolamine Phospholipid Ratio to M01, 70+ vs. 40-49, Female","[2]; human serum, females aged 70+ vs. females aged 40-49",0.758
same,"Ratio of Ethanolamine Phospholipid Ratio to M01, 50-59 vs. 40-49, Male","[2]; human serum, males aged 50-59 vs. males aged 40-49",0.984
same,"Ratio of Ethanolamine Phospholipid Ratio to M01, 60-69 vs. 40-49, Male","[2]; human serum, males aged 60-69 vs. males aged 40-49",0.884
same,"Ratio of Ethanolamine Phospholipid Ratio to M01, 70+ vs. 40-49, Male","[2]; human serum, males aged 70+ vs. males aged 40-49",0.863
same,"Ratio of ethanolamine phospholipid ratio to M01, ADAS 5-19 to CN, Female","[2]; serum, females, ADAS 5-19 vs cognitive normal",0.989
same,"Ratio of ethanolamine phospholipid ratio to M01, ADAS 20-39 to 5-19, Female","[2]; serum, females, ADAS 20-39 vs ADAS 5-19",0.972
same,"Ratio of ethanolamine phospholipid ratio to M01, ADAS 20-39 to CN, Female","[2]; serum, females, ADAS 20-39 vs cognitive normal",0.962
same,"Ratio of ethanolamine phospholipid ratio to M01, ADAS 40-70 to 5-19, Female","[2]; serum, females, ADAS 40-70 vs ADAS 5-19",0.889
same,"Ratio of ethanolamine phospholipid ratio to M01, ADAS 40-70 to 20-39, Female","[2]; serum, females, ADAS 40-70 vs ADAS 20-39",0.914
same,"Ratio of ethanolamine phospholipid ratio to M01, ADAS 40-70 to CN, Female","[2]; serum, females, ADAS 40-70 vs cognitive normal",0.879
same,"Ethanolamine phospholipid ratio to M01, Mean, SDAT, ADAS 5-19, Female","[2]; serum, females, SDAT ADAS 5-19",0.091
same,"Ethanolamine phospholipid ratio to M01, Mean, SDAT, ADAS 20-39, Female","[2]; serum, females, SDAT ADAS 20-39",0.088
same,"Ethanolamine phospholipid ratio to M01, Mean, SDAT, ADAS 40-70, Female","[2]; serum, females, SDAT ADAS 40-70",0.081
same,"Ratio of ethanolamine phospholipid ratio to M01, AD, All to CN, Female","[2]; serum, females, all AD vs cognitive normal",0.941
same,"Ethanolamine phospholipid ratio to M01, Mean, SDAT_all Female","[2]; serum, females, all SDAT",0.086
same,"Ratio of ethanolamine phospholipid ratio to M01, Autopsy AD vs. Control, Female","[2]; serum, females, autopsy AD vs post mortem control",0.809
same,"Ethanolamine phospholipid ratio to M01, Mean, Cognitive Normal, Female","[2]; serum, females, cognitive normal",0.092
same,"Ethanolamine phospholipid ratio to M01, Mean, Post Mortem SDAT Female",[2]; [3],0.032
same,"Ethanolamine phospholipid ratio to M01, Mean, Post Mortem Ctl, Female",[2]; [4],0.040
same,"Ratio of ethanolamine phospholipid ratio to M01, ADAS 20-39 to 5-19, Male","[2]; serum, males, SDAT ADAS 20-39 vs ADAS 5-19",0.980
same,"Ratio of ethanolamine phospholipid ratio to M01, ADAS 40-70 to 5-19, Male","[2]; serum, males, SDAT ADAS 40-70 vs ADAS 5-19",0.930
same,"Ratio of ethanolamine phospholipid ratio to M01, ADAS 40-70 to 20-39, Male","[2]; serum, males, SDAT ADAS 40-70 vs ADAS 20-39",0.948
same,"Ethanolamine phospholipid ratio to M01, Mean, Age Ctl, 30-39, Male","[2]; serum, males, age control 30-39",0.113
same,"Ethanolamine phospholipid ratio to M01, Mean, Age Ctl, 40-49, Male","[2]; serum, males, age control 40-49",0.102
same,"Ethanolamine phospholipid ratio to M01, Mean, Age Ctl, 50-59, Male","[2]; serum, males, age control 50-59",0.101
same,"Ethanolamine phospholipid ratio to M01, Mean, Age Ctl, 60-69, Male","[2]; serum, males, age control 60-69",0.091
same,"Ethanolamine phospholipid ratio to M01, Mean, Age Ctl, 70+_Male","[2]; serum, males, age control 70+",0.088
same,"Ethanolamine phospholipid ratio to M01, Mean, Post Mortem SDAT Male","[2]; serum, males, post mortem SDAT",0.029
same,"Ratio of ethanolamine phospholipid ratio to M01, SDAT vs Control (post mortem, males)","[2]; serum, males, post mortem SDAT vs post mortem control",0.607
same,"Ethanolamine phospholipid ratio to M01, Mean, Post Mortem Ctl, Male","[2]; serum, males, post mortem control",0.048

# Source: US9517222B2, “Method for the treatment of senile dementia of the Alzheimer's type” (Phenomenome Discoveries Inc., priority 2007, dated 2016)
